The source of these data is article PMC8070743.

Chains of the proteins cited; added tags and fusions are not shown. Residues count along the entry.
UniProt P02769, residues 25-607: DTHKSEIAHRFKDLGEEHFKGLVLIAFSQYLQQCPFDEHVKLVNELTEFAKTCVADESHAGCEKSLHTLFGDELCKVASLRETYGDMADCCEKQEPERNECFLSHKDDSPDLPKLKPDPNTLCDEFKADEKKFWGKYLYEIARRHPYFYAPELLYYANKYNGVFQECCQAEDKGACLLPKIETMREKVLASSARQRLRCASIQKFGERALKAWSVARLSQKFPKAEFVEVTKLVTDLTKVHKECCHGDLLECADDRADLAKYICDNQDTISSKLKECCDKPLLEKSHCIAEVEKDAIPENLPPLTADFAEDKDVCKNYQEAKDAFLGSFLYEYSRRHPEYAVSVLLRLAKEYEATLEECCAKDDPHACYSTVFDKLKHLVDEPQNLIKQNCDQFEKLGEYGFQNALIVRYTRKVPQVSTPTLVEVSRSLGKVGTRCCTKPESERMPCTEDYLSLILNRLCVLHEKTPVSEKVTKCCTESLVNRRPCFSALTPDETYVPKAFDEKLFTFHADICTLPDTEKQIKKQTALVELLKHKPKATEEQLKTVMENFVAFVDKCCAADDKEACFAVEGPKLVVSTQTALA
UniProt P56704, residues 19-352: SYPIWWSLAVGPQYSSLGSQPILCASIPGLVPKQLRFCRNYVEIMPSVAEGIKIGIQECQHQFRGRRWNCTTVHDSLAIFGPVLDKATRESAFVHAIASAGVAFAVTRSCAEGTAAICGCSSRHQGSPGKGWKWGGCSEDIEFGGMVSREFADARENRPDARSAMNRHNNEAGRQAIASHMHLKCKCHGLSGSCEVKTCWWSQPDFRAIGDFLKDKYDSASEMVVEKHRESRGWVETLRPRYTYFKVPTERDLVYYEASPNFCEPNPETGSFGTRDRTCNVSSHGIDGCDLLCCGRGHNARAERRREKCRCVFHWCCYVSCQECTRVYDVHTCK

For the test, the target named is bovine serum albumin (bovine) (UniProt P02769). As to the kind of experiment: SPR; PN1 or PN2 amine-coupled to CM5 sensor chip at pH 5.0; single-cycle kinetics; wnt3a or BSA at 0.062, 0.185, 0.556, 1.667 and 5 µM (legend; methods say 100 nM); contact 1 min, dissociation 2 min; Biacore T200; 4 °C; 30 µL/min; both purified. For orientation: SPR reads the build-up and loss of mass on a sensor chip optically.

No constants are given. Whether binding was seen depends on the method and setting.

With “human wnt3a (from UniProt P56704 19-352) (ligand)”, the binding entry was “no binding (tested: 0.062-5 µM (legend))”.
